# The supplement of paper PMC8728848
# Some of the results follow.
# B1: PP2A1 (Arabidopsis thaliana) (protein)
# chain: MFRNQDSKYLIPVQKEAPPVTTLPMKASTVKSPHNCEAILRDADPPISLSSVNLSEQLRSGVFLKPKKQIKYWVDERNSNCFMLFAKNLSITWSDDVNYWTWFTEKESPNENVEAVGLKNVCWLDITGKFDTRNLTPGIVYEVVFKVKLEDPAYGWDTPVNLKLVLPNGKEKPQEKKVSLRELPRYKWVDVRVGEFVPEKSAAGEITFSMYEHAAGVWKKGLSLKGVAIRPKQHHHHHH
# Tests used:
# Assay in all cases: glycan array binding signal (z-score within array); higher = stronger binding
# Conditions in all cases: glycan notation: IUPAC condensed, linker removed
# [1] = molecular target: Neu5Ac(a2-3)[Neu5Ac(a2-6)]GalNAc
# How it was run: (§1)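 Glycan array binding is given as a within-array Z-score, which can be read as non-binding when negative. The arrays, 3228 of them, came from the Consortium for Functional Glycomics database and were retained only where the protein sequence was available. Z-scores were averaged across arrays of the same protein sequence at different concentrations or buffers and across linkers.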
# Neu5Ac(a2-6)Gal = molecular target: Neu5Ac(a2-6)Gal
# How it was run: as §1
# Neu5Ac(a2-6)Gal(b1-4)Glc = molecular target: Neu5Ac(a2-6)Gal(b1-4)Glc
# How it was run: as §1
# [2] = molecular target: Neu5Ac(a2-6)Gal(b1-4)GlcNAc
# How it was run: as §1
# [3] = molecular target: Neu5Ac(a2-6)Gal(b1-4)GlcNAc(b1-2)Man(a1-3)Man(b1-4)GlcNAc(b1-4)GlcNAc
# How it was run: as §1
# [4] = molecular target: Neu5Ac(a2-6)Gal(b1-4)GlcNAc(b1-2)Man(a1-3)[Gal(b1-4)GlcNAc(b1-2)Man(a1-6)]Man(b1-4)GlcNAc(b1-4)GlcNAc
# How it was run: as §1
# [5] = molecular target: Neu5Ac(a2-6)Gal(b1-4)GlcNAc(b1-2)Man(a1-3)[GlcNAc(b1-2)Man(a1-6)]Man(b1-4)GlcNAc(b1-4)GlcNAc
# How it was run: as §1
# [6] = molecular target: Neu5Ac(a2-6)Gal(b1-4)GlcNAc(b1-2)Man(a1-3)[GlcNAc(b1-2)Man(b1-4)GlcNAc(b1-2)Man(a1-6)]Man(b1-4)GlcNAc(b1-4)GlcNAc
# How it was run: as §1
# [7] = molecular target: Neu5Ac(a2-6)Gal(b1-4)GlcNAc(b1-2)Man(a1-3)[Man(a1-6)]Man(b1-4)GlcNAc(b1-4)GlcNAc
# How it was run: as §1
# [8] = molecular target: Neu5Ac(a2-6)Gal(b1-4)GlcNAc(b1-2)Man(a1-3)[Neu5Ac(a2-6)Gal(b1-4)GlcNAc(b1-2)Man(a1-6)]Man(b1-4)GlcNAc(b1-4)GlcNAc
# How it was run: as §1
# [9] = molecular target: Neu5Ac(a2-6)Gal(b1-4)GlcNAc(b1-2)Man(a1-6)Man(b1-4)GlcNAc(b1-4)GlcNAc
# How it was run: as §1
# [10] = molecular target: Neu5Ac(a2-6)Gal(b1-4)GlcNAc(b1-2)Man(a1-6)[Gal(b1-4)GlcNAc(b1-2)Man(a1-3)]Man(b1-4)GlcNAc(b1-4)GlcNAc
# How it was run: as §1
# [11] = molecular target: Neu5Ac(a2-6)Gal(b1-4)GlcNAc(b1-2)Man(a1-6)[GlcNAc(b1-2)Man(a1-3)]Man(b1-4)GlcNAc(b1-4)GlcNAc
# How it was run: as §1
# [12] = molecular target: Neu5Ac(a2-6)Gal(b1-4)GlcNAc(b1-2)Man(a1-6)[Man(a1-3)]Man(b1-4)GlcNAc(b1-4)GlcNAc
# How it was run: as §1
# [13] = molecular target: Neu5Ac(a2-6)Gal(b1-4)GlcNAc(b1-3)Gal(b1-3)GlcNAc
# How it was run: as §1
# [14] = molecular target: Neu5Ac(a2-6)Gal(b1-4)GlcNAc(b1-3)Gal(b1-4)GlcNAc
# How it was run: as §1
# [15] = molecular target: Neu5Ac(a2-6)Gal(b1-4)GlcNAc(b1-3)Gal(b1-4)GlcNAc(b1-3)Gal(b1-4)GlcNAc
# How it was run: as §1
# [16] = molecular target: Neu5Ac(a2-6)Gal(b1-4)GlcNAc(b1-3)Gal(b1-4)[Fuc(a1-3)]GlcNAc(b1-3)Gal(b1-4)[Fuc(a1-3)]GlcNAc
# How it was run: as §1
# [17] = molecular target: Neu5Ac(a2-6)Gal(b1-4)GlcNAc(b1-3)GalNAc
# How it was run: as §1
# [18] = molecular target: Neu5Ac(a2-6)Gal(b1-4)GlcNAc6S
# How it was run: as §1
# Neu5Ac(a2-6)GalNAc = molecular target: Neu5Ac(a2-6)GalNAc
# How it was run: as §1
# [19] = molecular target: Neu5Ac(a2-6)GalNAc(b1-4)GlcNAc
# How it was run: as §1
# [20] = molecular target: Neu5Ac(a2-6)GlcNAc(b1-4)GlcNAc
# How it was run: as §1
# [21] = molecular target: Neu5Ac(a2-6)GlcNAc(b1-4)GlcNAc(b1-4)GlcNAc
# How it was run: as §1
# Neu5Ac(a2-8)Neu5Ac = molecular target: Neu5Ac(a2-8)Neu5Ac
# How it was run: as §1
# [22] = molecular target: Neu5Ac(a2-8)Neu5Ac(a2-3)Gal(b1-4)Glc
# How it was run: as §1
# [23] = molecular target: Neu5Ac(a2-8)Neu5Ac(a2-3)[GalNAc(b1-4)]Gal(b1-4)Glc
# How it was run: as §1
# [24] = molecular target: Neu5Ac(a2-8)Neu5Ac(a2-8)Neu5Ac
# How it was run: as §1
# [25] = molecular target: Neu5Ac(a2-8)Neu5Ac(a2-8)Neu5Ac(a2-3)Gal(b1-4)Glc
# How it was run: as §1
# [26] = molecular target: Neu5Ac(a2-8)Neu5Ac(a2-8)Neu5Ac(a2-3)[GalNAc(b1-4)]Gal(b1-4)Glc
# How it was run: as §1
# [27] = molecular target: Neu5Ac(a2-8)Neu5Ac(a2-8)Neu5Ac(a2-8)Neu5Ac(a2-3)[GalNAc(b1-4)]Gal(b1-4)Glc
# How it was run: as §1
# [28] = molecular target: Neu5Ac(b2-6)Gal(b1-4)GlcNAc
# How it was run: as §1
# Neu5Ac(b2-6)GalNAc = molecular target: Neu5Ac(b2-6)GalNAc
# How it was run: as §1
# [29] = molecular target: Neu5Ac9Ac(a2-3)Gal(b1-3)GlcNAc
# How it was run: as §1
# [30] = molecular target: Neu5Ac9Ac(a2-3)Gal(b1-4)GlcNAc
# How it was run: as §1
# [31] = molecular target: Neu5Ac9Ac(a2-6)Gal(b1-4)GlcNAc
# How it was run: as §1
# [32] = molecular target: Neu5Gc(a2-3)Gal(b1-3)GlcNAc
# How it was run: as §1
# [33] = molecular target: Neu5Gc(a2-3)Gal(b1-3)[Fuc(a1-4)]GlcNAc
# How it was run: as §1
# Neu5Gc(a2-3)Gal(b1-4)Glc = molecular target: Neu5Gc(a2-3)Gal(b1-4)Glc
# How it was run: as §1
# [34] = molecular target: Neu5Gc(a2-3)Gal(b1-4)GlcNAc
# How it was run: as §1
# [35] = molecular target: Neu5Gc(a2-3)Gal(b1-4)[Fuc(a1-3)]GlcNAc
# How it was run: as §1
# [36] = molecular target: Neu5Gc(a2-6)Gal(b1-4)GlcNAc
# How it was run: as §1
# Neu5Gc(a2-6)GalNAc = molecular target: Neu5Gc(a2-6)GalNAc
# How it was run: as §1
# [37] = molecular target: Neu5Gc(b2-6)Gal(b1-4)GlcNAc
# How it was run: as §1
binder,measurement,setting,value
B1,glycan array binding signal (z-score),[1],-0.069
same,glycan array binding signal (z-score),Neu5Ac(a2-6)Gal,-0.22
same,glycan array binding signal (z-score),Neu5Ac(a2-6)Gal(b1-4)Glc,-0.255
same,glycan array binding signal (z-score),[2],-0.348
same,glycan array binding signal (z-score),[3],1.76
same,glycan array binding signal (z-score),[4],0.098
same,glycan array binding signal (z-score),[5],1.09
same,glycan array binding signal (z-score),[6],0.772
same,glycan array binding signal (z-score),[7],2.57
same,glycan array binding signal (z-score),[8],1.13
same,glycan array binding signal (z-score),[9],0.155
same,glycan array binding signal (z-score),[10],0.37
same,glycan array binding signal (z-score),[11],0.372
same,glycan array binding signal (z-score),[12],0.225
same,glycan array binding signal (z-score),[13],-0.355
same,glycan array binding signal (z-score),[14],-0.311
same,glycan array binding signal (z-score),[15],-0.134
same,glycan array binding signal (z-score),[16],-0.301
same,glycan array binding signal (z-score),[17],0.09
same,glycan array binding signal (z-score),[18],0.408
same,glycan array binding signal (z-score),Neu5Ac(a2-6)GalNAc,-0.519
same,glycan array binding signal (z-score),[19],-0.478
same,glycan array binding signal (z-score),[20],0.23
same,glycan array binding signal (z-score),[21],-0.689
same,glycan array binding signal (z-score),Neu5Ac(a2-8)Neu5Ac,-0.408
same,glycan array binding signal (z-score),[22],-0.364
same,glycan array binding signal (z-score),[23],0.265
same,glycan array binding signal (z-score),[24],-0.255
same,glycan array binding signal (z-score),[25],0.006
same,glycan array binding signal (z-score),[26],0.401
same,glycan array binding signal (z-score),[27],-0.313
same,glycan array binding signal (z-score),[28],0.16
same,glycan array binding signal (z-score),Neu5Ac(b2-6)GalNAc,-0.506
same,glycan array binding signal (z-score),[29],-0.408
same,glycan array binding signal (z-score),[30],0.133
same,glycan array binding signal (z-score),[31],-0.487
same,glycan array binding signal (z-score),[32],-0.251
same,glycan array binding signal (z-score),[33],-0.18
same,glycan array binding signal (z-score),Neu5Gc(a2-3)Gal(b1-4)Glc,0.177
same,glycan array binding signal (z-score),[34],-0.079
same,glycan array binding signal (z-score),[35],-0.274
same,glycan array binding signal (z-score),[36],-0.392
same,glycan array binding signal (z-score),Neu5Gc(a2-6)GalNAc,-0.153
same,glycan array binding signal (z-score),[37],-0.545

# Reformatted: results already given.
binder	measurement	setting	value
B1	glycan array binding signal (z-score)	[7]	2.57
same	glycan array binding signal (z-score)	[14]	-0.311
